In the supplement of paper PMC12823440, “Inhibitors supercharge kinase turnover through native proteolytic circuits” (Nature, 2025):
Where a name gives a salt, the structure may show the parent alone. This is one part of the list. The calls rarely recur for the same compound in another form.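 Kinases were expressed as nanoluciferase fusions in K562 cells and luminescence was read every 4 h between 2 and 18 h as percent of control, DMSO set to 100% and a positive control to 0%. A time point counts as decreased when the signal drops significantly (2 sigma). The hit call is the authors' own, does not follow from the count of time points alone, and its rule is not shown.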

The chains behind the UniProt entries cited, without tags or fusion partners. Where a name states a change or a piece, a line headed by the entry shows the natural chain unless it says otherwise.
UniProt P41240: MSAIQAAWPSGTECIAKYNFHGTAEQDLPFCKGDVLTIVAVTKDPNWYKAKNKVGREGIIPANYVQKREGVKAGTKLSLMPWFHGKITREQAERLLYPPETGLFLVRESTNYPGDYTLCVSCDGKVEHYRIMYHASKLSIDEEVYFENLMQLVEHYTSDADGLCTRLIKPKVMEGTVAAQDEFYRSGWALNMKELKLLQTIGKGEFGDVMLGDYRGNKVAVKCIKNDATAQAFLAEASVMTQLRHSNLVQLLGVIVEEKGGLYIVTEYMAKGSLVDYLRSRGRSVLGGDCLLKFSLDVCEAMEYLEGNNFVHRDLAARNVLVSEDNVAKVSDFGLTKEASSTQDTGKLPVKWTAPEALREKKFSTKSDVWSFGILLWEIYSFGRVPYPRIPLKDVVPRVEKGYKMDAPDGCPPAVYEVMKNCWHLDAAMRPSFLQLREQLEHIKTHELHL
UniProt P48729: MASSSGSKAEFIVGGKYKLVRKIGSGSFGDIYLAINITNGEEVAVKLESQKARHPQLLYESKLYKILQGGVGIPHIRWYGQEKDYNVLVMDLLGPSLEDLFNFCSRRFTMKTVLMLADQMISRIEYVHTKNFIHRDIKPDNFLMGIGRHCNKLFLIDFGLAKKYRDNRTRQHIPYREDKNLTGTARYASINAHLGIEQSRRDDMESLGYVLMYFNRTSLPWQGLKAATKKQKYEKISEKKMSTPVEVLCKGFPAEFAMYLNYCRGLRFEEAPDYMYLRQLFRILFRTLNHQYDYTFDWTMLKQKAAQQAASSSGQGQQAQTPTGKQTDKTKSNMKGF

biological target: CSK (UniProt P41240); assay: kinase-Nluc reporter destabilization hit call (1 = scored as downregulated) (binary); higher = compound decreases kinase abundance; conditions: K562; 2-18 h

kinase-Nluc reporter destabilization hit call, inactive:
O=C1Nc2ccccc2/C1=C/c1ccc(F)cc1 (10 µM) 0, CN(C)Cc1ccc(-c2cnn3c(-c4cccc(NC(=O)c5cccc(C(F)(F)F)c5)c4)ccnc23)cc1 (2.5 µM) 0, Cc1c[nH]c(/C=C2\C(=O)Nc3ccccc32)c1CCC(=O)O (10 µM) 0, CC(C)c1ccc2oc3nc(N)c(C(=O)O)cc3c(=O)c2c1 [Amlexanox] (10 µM) 0, NS(=O)(=O)c1ccc(Nc2nc(OCC3CCCCC3)c3[nH]cnc3n2)cc1 (10 µM) 0, Cn1nc(C(C)(C)C)cc1NC(=O)Nc1ccc(Oc2ccncc2)cc1 (10 µM) 0, COc1ccc(F)c(F)c1C(=O)c1cnc(NC2CCN(S(C)(=O)=O)CC2)nc1N (2.5 µM) 0, COc1cc(C(=O)NC2CCN(C)CC2)ccc1Nc1ncc2c(n1)N(C1CCCC1)CC(F)(F)C(=O)N2C (10 µM) 0, CCN1C(=O)N(c2c(F)c(OC)cc(OC)c2F)Cc2cnc3[nH]c(CN4CCOCC4)cc3c21 [Pemigatinib] (10 µM) 0, COc1cc(Oc2ccnc3cc(OC)c(OC)cc23)ccc1NC(=O)NC(C)c1nccs1 (configuration not stated) (2.5 µM) 0, C=CC(=O)N1C[C@H](Nc2ncnc3[nH]ccc23)CC[C@@H]1C [Ritlecitinib] (10 µM) 0, CC(C)(C)S(=O)(=O)c1cc2c(Nc3ccc4scnc4c3)ncnc2cc1OCCO (2.5 µM) 0, O=C(NOC[C@H](O)CO)c1ccc(F)c(F)c1Nc1ccc(I)cc1F (2.5 µM) 0, Cc1cccc([C@@H](CO)NC(=O)[C@@H](C)N2Cc3ccc(-c4nc(NC5CCOCC5)ncc4Cl)cc3C2=O)c1 [ERK1/2 inhibitor 1] (10 µM) 0, CNC(=O)c1cc(Oc2ccc(NC(=O)Nc3cc(C(C)(C)C)nn3-c3ccc4ncccc4c3)c(F)c2)ccn1 [Rebastinib] (2.5 µM) 0, CCCn1cnc2c(NCc3ccccc3)nc(NC(CC)CO)nc21 (configuration not stated) [Ca2+ channel agonist 1] (2.5 µM) 0, Brc1c(Br)c(Br)c2n[nH]nc2c1Br (10 µM) 0, C=CC(=O)Nc1cccc(Nc2nc(Nc3ccc(OCCOC)cc3)ncc2F)c1 [Spebrutinib] (10 µM) 0, CC(C)=CC/C=C(\C)[C@H]1CC[C@]2(C)[C@@H]1[C@H](O)C[C@@H]1[C@@]3(C)CC[C@H](O[C@@H]4O[C@H](CO)[C@@H](O)[C@H](O)[C@H]4O[C@@H]4O[C@H](CO)[C@@H](O)[C@H](O)[C@H]4O)C(C)(C)[C@@H]3CC[C@]12C [Ginsenoside Rg5] (10 µM) 0, Cc1ncc(-c2ccnc(Nc3ccc(S(C)(=O)=O)cc3)n2)n1C(C)C (2.5 µM) 0, CN(C)CCOc1ccc(-c2nc(-c3ccncc3)c(-c3ccc4c(c3)CC/C4=N\O)[nH]2)cc1 (10 µM) 0, CCN(CCCOc1ccc2c(Nc3cc(CC(=O)Nc4cccc(F)c4)[nH]n3)ncnc2c1)CCOP(=O)(O)O [Barasertib] (10 µM) 0, C=CC(=O)N[C@H]1COC[C@H]1Nc1ncc2cc(-c3c(Cl)c(OC)cc(OC)c3Cl)c(=O)n(C)c2n1 (10 µM) 0

biological target: CSNK1A1 (UniProt P48729); assay: as above; conditions: K562; 2-18 h

kinase-Nluc reporter destabilization hit call, inactive:
CC#CC(=O)N[C@H]1CCCN(c2c(F)cc(C(N)=O)c3[nH]c(C)c(C)c23)C1 [Branebrutinib] (10 µM) 0, O=C1NC(=NCc2cccs2)S/C1=C\c1ccc2ncccc2c1 (10 µM) 0, Cn1c(=O)n(-c2ccc(C(C)(C)C#N)cc2)c2c3cc(-c4cnc5ccccc5c4)ccc3ncc21 [Dactolisib (Tosylate)] (10 µM) 0, COC(=O)c1ccc2c(C(=Nc3ccc(N(C)C(=O)CN4CCN(C)CC4)cc3)c3ccccc3)c(O)[nH]c2c1 [Nintedanib] (2.5 µM) 0, COc1cc2ncnc(Nc3ccc(O)cc3)c2cc1OC (10 µM) 0, O=C(c1ccc(-c2ccc(Cl)cc2)o1)N(Cc1ccccn1)c1ccc(N2CCNCC2)cc1 [MK2-IN-1 (hydrochloride)] (10 µM) 0, CN1CCN(S(=O)(=O)c2ccc(-c3cnc(N)c(C(=O)Nc4cccnc4)n3)cc2)CC1 (10 µM) 0, CN(C)C[C@@H]1CCn2cc(c3ccccc32)C2=C(C(=O)NC2=O)c2cn(c3ccccc23)CCO1 [Ruboxistaurin (hydrochloride)] (10 µM) 0, COc1ccc(Oc2cc(NCCC(F)(F)F)c3ncc(-c4ccc(C(=O)NC5CC5)c(C)c4)n3n2)c(F)c1F (2.5 µM) 0, CCCCNc1ncc(-c2ccc(CN3CCOCC3)cn2)c(NC2CCC(O)CC2)n1 (configuration not stated) (10 µM) 0, O=C(Nc1cc(C(F)(F)F)ccc1N1CCN(Cc2ccccn2)CC1)c1ccc(-c2ccncc2)o1 (10 µM) 0, CC(C)(/C=C(\C#N)C(=O)N1CCC[C@@H](n2nc(-c3ccc(Oc4ccccc4)cc3F)c3c(N)ncnc32)C1)N1CCN(C2COC2)CC1 (2.5 µM) 0, CNC(=O)c1cccc2cc(Oc3ccnc4cc(OCC5(N)CC5)c(OC)cc34)ccc12 [Lucitanib] (10 µM) 0, COc1cc(F)cc([C@@H](CO)NC(=O)[C@@H](C)N2Cc3ccc(-c4nc(NC5CCOCC5)ncc4Cl)cc3C2=O)c1 [ERK1/2 inhibitor 2] (10 µM) 0, O=c1cc(-c2ccccc2)oc2c(O)c(O)ccc12 [7,8-Dihydroxyflavone] (10 µM) 0, C=CC(=O)N1CC[C@H](n2nc(C#Cc3cc(OC)cc(OC)c3)c3c(N)ncnc32)C1 [Futibatinib] (10 µM) 0, O=C1Nc2ccccc2/C1=C/c1ccc(F)cc1 (10 µM) 0, CN(C)Cc1ccc(-c2cnn3c(-c4cccc(NC(=O)c5cccc(C(F)(F)F)c5)c4)ccnc23)cc1 (2.5 µM) 0, Cc1c[nH]c(/C=C2\C(=O)Nc3ccccc32)c1CCC(=O)O (10 µM) 0, CC(C)c1ccc2oc3nc(N)c(C(=O)O)cc3c(=O)c2c1 [Amlexanox] (10 µM) 0, NS(=O)(=O)c1ccc(Nc2nc(OCC3CCCCC3)c3[nH]cnc3n2)cc1 (10 µM) 0, Cn1nc(C(C)(C)C)cc1NC(=O)Nc1ccc(Oc2ccncc2)cc1 (10 µM) 0, COc1ccc(F)c(F)c1C(=O)c1cnc(NC2CCN(S(C)(=O)=O)CC2)nc1N (2.5 µM) 0, COc1cc(C(=O)NC2CCN(C)CC2)ccc1Nc1ncc2c(n1)N(C1CCCC1)CC(F)(F)C(=O)N2C (10 µM) 0, CCN1C(=O)N(c2c(F)c(OC)cc(OC)c2F)Cc2cnc3[nH]c(CN4CCOCC4)cc3c21 [Pemigatinib] (10 µM) 0, COc1cc(Oc2ccnc3cc(OC)c(OC)cc23)ccc1NC(=O)NC(C)c1nccs1 (configuration not stated) (2.5 µM) 0, C=CC(=O)N1C[C@H](Nc2ncnc3[nH]ccc23)CC[C@@H]1C [Ritlecitinib] (10 µM) 0, CC(C)(C)S(=O)(=O)c1cc2c(Nc3ccc4scnc4c3)ncnc2cc1OCCO (2.5 µM) 0, O=C(NOC[C@H](O)CO)c1ccc(F)c(F)c1Nc1ccc(I)cc1F (2.5 µM) 0, Cc1cccc([C@@H](CO)NC(=O)[C@@H](C)N2Cc3ccc(-c4nc(NC5CCOCC5)ncc4Cl)cc3C2=O)c1 [ERK1/2 inhibitor 1] (10 µM) 0, CNC(=O)c1cc(Oc2ccc(NC(=O)Nc3cc(C(C)(C)C)nn3-c3ccc4ncccc4c3)c(F)c2)ccn1 [Rebastinib] (2.5 µM) 0, CCCn1cnc2c(NCc3ccccc3)nc(NC(CC)CO)nc21 (configuration not stated) [Ca2+ channel agonist 1] (2.5 µM) 0, Brc1c(Br)c(Br)c2n[nH]nc2c1Br (10 µM) 0, C=CC(=O)Nc1cccc(Nc2nc(Nc3ccc(OCCOC)cc3)ncc2F)c1 [Spebrutinib] (10 µM) 0, CC(C)=CC/C=C(\C)[C@H]1CC[C@]2(C)[C@@H]1[C@H](O)C[C@@H]1[C@@]3(C)CC[C@H](O[C@@H]4O[C@H](CO)[C@@H](O)[C@H](O)[C@H]4O[C@@H]4O[C@H](CO)[C@@H](O)[C@H](O)[C@H]4O)C(C)(C)[C@@H]3CC[C@]12C [Ginsenoside Rg5] (10 µM) 0, Cc1ncc(-c2ccnc(Nc3ccc(S(C)(=O)=O)cc3)n2)n1C(C)C (2.5 µM) 0, CN(C)CCOc1ccc(-c2nc(-c3ccncc3)c(-c3ccc4c(c3)CC/C4=N\O)[nH]2)cc1 (10 µM) 0, CCN(CCCOc1ccc2c(Nc3cc(CC(=O)Nc4cccc(F)c4)[nH]n3)ncnc2c1)CCOP(=O)(O)O [Barasertib] (10 µM) 0, C=CC(=O)N[C@H]1COC[C@H]1Nc1ncc2cc(-c3c(Cl)c(OC)cc(OC)c3Cl)c(=O)n(C)c2n1 (10 µM) 0
